In the supplement of paper PMC5949888 one finds growth estimate data, which are given here for 147 substances.

± gives the standard deviation of the averaged measurements. Most values lie at the floor of the assay. Slopes are relative: functional sequences can read slightly below zero.

For the data set, the system named is Saccharomyces cerevisiae PS128 hsf1 delta, HSF1(1-493) fusion. Nature of the data set: growth estimate (transactivation domain function in HSF1 fusion, heat-shock survival) (a.u. (slope of normalised read count over time)); higher = stronger growth at 37°C, i.e. more transactivation activity. The settings on record: library: random library.
For the substance LRLRLPGLPGHLHATLSR, the growth estimate was < -0.25. The same measure for LIAVGLYLVTGRNLEFRNAV: < -0.25. In the case of HGVVADRKGGWLGSRCPRRL it was < -0.25; in that of FGSMSNTCLGC, < -0.25.

Consider MIVRGAIYGCVAVKNSSTQR, for which the growth estimate was < -0.25. The same measure for CRSQDSRGTCVSESVLRSRR: < -0.25; for YVG: < -0.25; for VGLQSCRRNDEILKNPHRWR: < -0.25.

With PPHSG, the growth estimate is < -0.25. In the case of PKRTMARTELESLSELRESR it was < -0.25. The same measure for PVLFV: < -0.25; for DQIPLRDESWGRTPQDNLTR: < -0.25. The same measure for SVGLRWRRQRIGSLVGMAVT: < -0.25.

Take EDGSGEAL: the growth estimate is < -0.25. In the case of PHTRETDKM it was -0.246; in that of ARGCGASVRRAAKGQMSVIA, < -0.25. With ALSFFSKRGSRQY, the growth estimate is < -0.25. The same measure for HIPTIVRIYCLIPLLFTVSV: < -0.25; for MIFPNWLKI: < -0.25. The same measure for YAFCVRSCRGTCLKFFRTAA: < -0.25; for CRGPITGWTWPTTNLGAICG: < -0.25. In the case of QPTGITAQSLTRSVVISACT, the growth estimate is < -0.25.

Consider RGDDEVE, for which the growth estimate is < -0.25.

In the case of RLVVVAP, the growth estimate was < -0.25. In the case of QWTSSCRIHSG it was < -0.25. In the case of AGGAVEYRLENCANLPHTGR it was < -0.25. Turning to VLGIHGSEPCPGRPGTSRAV, the growth estimate is < -0.25. In the case of VTPIRRG it was < -0.25; in that of IRCVLQKSSASVNGIRMLQS, < -0.25. For the substance SVRGGRWDKTSYVIAKWYRM, the growth estimate is < -0.25. In the case of PDAEPGP, the growth estimate is < -0.25. As to HHWEIPLRRVGPSSHIGDQL, the growth estimate was < -0.25. In the case of KYVGYPRIAFVGRRTSLTRI it was < -0.25; in that of EPLPE, < -0.25. With HNCWAGG, the growth estimate is -0.0591.

GVG: the growth estimate was -0.169 ± 0.12. The same measure for KTYG: < -0.25. In the case of EIHGR it was -0.25; in that of KLVEQAKVLLISYWRIEPAG, < -0.25; in that of GAFRSQVLSKCGNSIRSICE, < -0.25. In the case of LATLCQLPFGCESTESMGLN it was < -0.25; in that of RLRLRKPTGRRRGLTRPSSG, < -0.25; in that of DLTYCQTGSSWLINRRLWGW, < -0.25. For YVASLNPVAGRTPSPQGWEM, the growth estimate is < -0.25. The same measure for PERHESFR: -0.246; for AHAGDDLHRSVPGGRALNGG: < -0.25. As to CPLHANGIRPKGDTVTNMVQ, the growth estimate was < -0.25.

With TGSRP, the growth estimate is < -0.25.

With YPMETGKSIDRP, the growth estimate was < -0.25. The same measure for GQERFTTYQFPNHLLARPLA: < -0.25; for VGNSYVDVNLPHHHTVRLVI: < -0.25. The same measure for CISGLVAEQDRTMIRRWITR: < -0.25; for PPLYLVSARIRSSGASLSSV: < -0.25. Turning to RIVATAAIPTAAEMVGSFPG, the growth estimate is < -0.25.

Consider SGQFFLLSGCLRASSWFGP, for which the growth estimate was < -0.25.

For SLRTTGGRVVASRGNAPDGQ, the growth estimate was < -0.25.

On to RPCCG, for which the growth estimate was < -0.25. Consider GHFWHGCKAGPDSKQTGKFA, for which the growth estimate is < -0.25.

As to GIKINVPIAWGKRITVRRDC, the growth estimate is < -0.25. In the case of GGGSGAA it was < -0.253; in that of QPRGLCCGVNFLRFLA, < -0.25; in that of NLPSGGLKWRIIGRICCKGG, -0.246. The same measure for ARRSETRRLKLHLHSQALGS: < -0.25. The same measure for PVY: < -0.25; for GRFAPRSIDLLQNPSQSSA: < -0.25; for RPFCSSGSDCCWVEGPGGGP: < -0.25.

Consider CNRNREGQSKARPPRPRLSH, for which the growth estimate is < -0.25. The same measure for GRTVTARQSR: < -0.25; for HYCRIVKASVVIARG: < -0.25. The same measure for SRTVRLIY: < -0.25; for EFFQYGAPRVRIQTHMDPLF: < -0.25. On to SLRGDQADGINFGETV, for which the growth estimate is -0.219. The same measure for HYTTALFRTRI: < -0.25. Take IRSAHTAEFVGPSWSMCSGH: the growth estimate was < -0.25. The same measure for HNPLGGSMKPHPSFKLGRGR: < -0.25; for TGVTHRQVRSKFVMLICPVH: < -0.25. The same measure for MTNLCAAGWRYPRGRLRF: < -0.25; for FPLRYCPGIPKSSGPFKGVT: < -0.25.

Turning to SGTSRRLTHSRWSFLAAYQP, the growth estimate was < -0.25. In the case of EVCSVANRKGSQNGWF it was < -0.25. In the case of RSSTANYRSRAQIGASLASC it was < -0.25. The same measure for PLGMHRTTAS: -0.243. For RST, the growth estimate is < -0.25. The same measure for VSVMHWPDCGGGVCFDRDSG: -0.18.

Regarding PDMKLRLHLRLFSRLMIAR, the growth estimate is < -0.25. The same measure for EACSNSDRAEGQMGHV: < -0.25; for PLL: < -0.25. In the case of FGGTCFRTRPYYQAILTVNS it was < -0.25; in that of DVVMTQRT, 0.0423; in that of CSRVS, < -0.25.

SRLWCCSQRFTADETKVPCS: the growth estimate is < -0.25. The same measure for VGSSALSADRGGASYQSQDS: < -0.25. The same measure for WKGRRARLHWAYSLADETVQ: < -0.25; for IWSSNKITSGMSDASAV: < -0.25; for DMLFRDVCDNAELHKIVYQI: < -0.25. The same measure for DQYRAPKSHFLRDLSIGIRT: < -0.25; for AGRTCVGVRQDAQGSRVVAW: < -0.25; for ITVIHGEPGT: < -0.25. Consider SSARKVVTVLSKTVEIECVK, for which the growth estimate is < -0.25. With PSRDRAAVEP, the growth estimate was -0.235. In the case of ASGALVPQNTGYFGV it was -0.182. In the case of SVVPRQRLISIWAPVLCVFV it was < -0.25; in that of DSIFYYRVHSKVAAVRLTQR, < -0.25; in that of REGSSANGHSCQLGQMLGGC, < -0.25. In the case of KEADHPIGRIGGDP it was -0.246; in that of NRTWQL, -0.241; in that of DGEYTQCKTTGGKVRLQS, < -0.25.

Regarding FYANVVPFLWGCIA, the growth estimate was < -0.25. The same measure for SWTLS: < -0.25; for SQF: < -0.25. In the case of GTLGTRPRIRAWFGLVVPGR it was < -0.25.

Take STVIG: the growth estimate is < -0.25.

With YSLGSVPGSFGR, the growth estimate is < -0.25. The same measure for DEAGQTIVLGKKVRRRRVLE: < -0.25. In the case of PSGQLLARRHTLAPWTDARK it was < -0.25; in that of ASLRTRGVGMEMVTITFVPL, < -0.25.

As for LTRIGPQCCTRGAEMCQQLI, the growth estimate is < -0.25.

As for GILNTVNVSPAARAWYSL, the growth estimate was < -0.25. As to RLVAGKACGHVLMVRLRKCH, the growth estimate is < -0.25. In the case of PDNTAGNSYAEGAAAKLALE it was < -0.25; in that of GEPLCRNAWVGIDW, < -0.25; in that of NMESK, < -0.25. In the case of STVVVDSSVVTRPGPRVLA it was < -0.25; in that of RIREIFVTLAPHVRTCLHRR, < -0.25.

Regarding TDFSNILEPIHAIVVCGSRS, the growth estimate was < -0.25. In the case of EVRPCQTHSEIDASGQLIRA, the growth estimate was < -0.25.

As for ESAHLTLGIEGDYHLPDVEA, the growth estimate is < -0.25.

As to GEVQHHFRDNLKVLN, the growth estimate was < -0.25.

As for KCWRDRKGPGCPT, the growth estimate is < -0.25. The same measure for TRAWRSVWAFNINKSRSVPC: < -0.25.

For HMD, the growth estimate is < -0.25. The same measure for LRAYFTHRPHGLSRFGLSPT: < -0.25.

In the case of AVITEPKIPYGAIINCSRIR, the growth estimate is < -0.25.

Consider QDKSRGPPGPRAAKNPCLRT, for which the growth estimate is < -0.25. The same measure for FIPKSTLRISKLDCHSFV: < -0.25. In the case of GVTQRARNLMQ it was < -0.25; in that of DRPSS, < -0.25; in that of TSIKEYGRDFMVHSVLAGRT, < -0.25. The same measure for GRIAQAVCWGNAISERKPRT: < -0.25; for LKGGWEWQTERHVLRWSFSR: < -0.25; for CEVVRSAGRYQVSVM: < -0.25.

Regarding IQGRTNRVLRHRAEIRHR, the growth estimate is < -0.25. Consider ACGPFVRCYLKRLGWDTRIT, for which the growth estimate is < -0.25. The same measure for ARVEF: < -0.25.

YAIIIRSYHVPTRWLQ: the growth estimate is < -0.25. The same measure for MEIKRSPD: < -0.25; for LSLGLRRPSAFDSPLLGASE: < -0.25.
